Among the data in PubChem BioAssay AID493014 (National Center for Advancing Translational Sciences (NCATS), 2011) are AC50 values, retold here.

The list shows a part of the results. Shown are side measurements of this screen, not its main read-out; they come without a call. The list favours compounds with an active or inconclusive main result. The note in brackets gives the kind of curve behind each potency; many fits are weak.

A short description of this experiment: qHTS Assay to Find Inhibitors of Chronic Active B-Cell Receptor Signaling. The note with it: ABC-DLBCL IkBa-CBG/CBR reporter, luminescence ratio (green luciferase fused to IkBa over red control in TMD8 lymphoma cells), 4 h. The essentials:
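Doxycycline induced both beetle luciferases in TMD8 lymphoma cells; IKK-driven degradation limits the IkappaBalpha-fused green signal, while red luminescence normalises for cell number and nonspecific effects. Compounds tested up to 46 uM, 4 hrs.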

Where [1] appears, read: measured here: CBR red luminescence, cell number.
Setting [2] is: measured here: IkBa-CBG green luminescence.

In the case of `C=CCCCCCCCCc1nc(SCC(=O)O)n[nH]1`, under setting [1], the AC50 – broadly, the concentration giving half of the maximal activity seen – is 35.5 µM [falling, partial curve, poor fit].
On to `Cc1cccc(C(=O)Nc2nnc(-c3ccncc3)o2)c1`, for which the AC50 under setting [1] was 7.94 µM [falling, partial curve].
For `COc1ccc(Cl)cc1C(=O)NNC(=O)COC(=O)c1cccs1`, the AC50 under setting [1] is 14.6 µM [rising, partial curve, poor fit].
For `COc1cc(/C=C/C(=O)Nc2ccc(C(C)=O)cc2)cc(OC)c1OC`, the AC50 under setting [1] is 2.91 µM [rising, single point].
Same read-out and setting: with `Cc1ccc(C)c(SCC(=O)Nc2cc(C)nn2-c2ccc(F)cc2)c1` the figure was 32.6 µM [falling, partial curve, poor fit]; with `O=C(COc1coc(CN2CCN(c3ccccc3)CC2)cc1=O)Nc1ccc(F)cc1`, 2.59 µM [falling, full curve]; with `CCOc1ccc(NC(=S)N2CCc3cc(OC)c(OC)cc3C2COc2ccc3c(C)cc(=O)oc3c2)cc1` (stereo not drawn), 1.16 µM [rising, partial curve, poor fit].
For `CCc1ccc(C(=O)CSc2ncn[nH]2)cc1`, the AC50 under setting [1] was 14.1 µM [falling, partial curve, poor fit].
Consider `Cc1cc2nc(C3CCCN(C(=S)Nc4ccccc4C)C3)[nH]c2cc1C` (stereo not drawn), for which the AC50 under setting [1] was 2.82 µM [falling, partial curve, poor fit].
As to `O=S(=O)(c1ccccc1)C(/C=N\O)/C=C/c1ccccc1` (stereo not drawn), the AC50 under setting [1] is 35.5 µM [falling, single point].
Same read-out and setting: in the case of `Cc1ccc2nc(-c3ccc(O)cc3)c(Nc3ccc4c(c3)OCCO4)n2c1` it was 12.6 µM [falling, partial curve]; in that of `Cc1cccc(C=Nc2ccccc2C(N)=O)c1`, 32.6 µM [rising, single point]; in that of `COc1ccc(N2CCN(C(=O)C3CCCO3)CC2)cc1` (stereo not drawn), 18.4 µM [rising, partial curve].
In the case of `O=C1c2ccccc2C(O)N1c1ccc(Cl)cc1` (stereo not drawn), the AC50 runs as follows: under setting [1], 20.6 µM [falling, partial curve]; under setting [2], 16.4 µM [rising, partial curve, poor fit].
For the compound `CCOC(=O)c1c(NC(C)=O)sc2c1CCC(C=O)=C2Sc1ccccc1`, the AC50 under setting [1] was 29.1 µM [falling, single point].
`CCCCOc1ccc(C(=O)CCN2CCOCC2)cc1`: the AC50 was 35.5 µM [falling, single point] under setting [1] and 15.8 µM [rising, single point] under setting [2].
As for `CCCCN1c2cc(C)c(O)cc2C(C(=O)OCC)C1C` (stereo not drawn), the AC50 under setting [1] is 0.231 µM [rising, full curve, poor fit].
As to `CCOc1ccc(-n2c(SCC(N)=O)nc3c([nH]c4ccccc43)c2=O)cc1`, the AC50 under setting [1] is 0.58 µM [falling, partial curve, poor fit].
In the case of `C/C(=N\NC(=O)C1CCCC1)c1ccc(Cl)c(Cl)c1`, the AC50 under setting [1] is 1.12 µM [rising, full curve, poor fit].
Take `COc1ccc(/C=N/OCC(=O)N=Nc2c(O)[nH]c3ccc(Br)cc23)cc1`: the half-maximal activity concentration (AC50) under setting [1] was 4.47 µM [falling, single point].
Still for that read-out and setting: in the case of `COc1ccc(-c2cc(-c3ccc(OC)cc3)c(C#N)c(SC)n2)cc1` it was 0.82 µM [falling, full curve, poor fit]; in that of `CCCn1c(C)cc(C(=O)COC(=O)c2cc(S(=O)(=O)NCC(C)C)c(Cl)cc2Cl)c1C`, 2.31 µM [falling, full curve, poor fit].
In the case of `C=CCOC(=O)C(C#N)c1nc2ccccc2nc1N1CCN(c2ccccc2OC)CC1` (stereo not drawn), under setting [1], the AC50 is 6.31 µM [rising, single point].
Same read-out and setting: with `C=C(C)COc1ccc(-c2n[nH]c(C)c2-c2ccc(Br)cc2)c(O)c1` the figure was 35.5 µM [falling, single point].
With `N#Cc1c(N)oc(-c2ccco2)c1-c1ccco1`, the AC50 under setting [1] is 0.282 µM [falling, full curve, poor fit].
In the case of `O=C(OCC(=O)C12CC3CC(CC(C3)C1)C2)c1ccc(O)cc1O`, the AC50 under setting [1] was 18.4 µM [rising, single point].
Still for that read-out and setting: in the case of `O=S(=O)(c1c(F)cccc1F)C1CCN(S(=O)(=O)c2ccc3c(c2)OCCO3)CC1` it was 0.259 µM [rising, partial curve, poor fit]; in that of `CSc1ncccc1C(=O)NCc1ccc(C)cc1`, 2.06 µM [rising, single point]; in that of `CCn1c(SCC(=O)Nc2nccs2)nnc1-c1ccc(S(=O)(=O)N2CCCCC2)cc1`, 20.6 µM [falling, partial curve, poor fit].
As to `Cc1ccc(NC(=O)CNC(=O)c2cccc(C)c2)nc1`, the AC50 under setting [1] was 7.31 µM [falling, partial curve, poor fit] and the concentration at half-maximal activity (AC50) under setting [2] is 29.1 µM [rising, partial curve, poor fit].
As to `Cc1ccccc1C(=O)N1CCC(C(=O)N2CCN(Cc3ccc4c(c3)OCO4)CC2)CC1`, the AC50 runs as follows: under setting [1], 14.6 µM [rising, partial curve]; under setting [2], 18.4 µM [falling, partial curve].
In the case of `O=C(COc1ccccc1F)Nc1ccc(-c2nc3ccccc3s2)cc1`, the concentration at half-maximal activity (AC50) under setting [1] is 0.13 µM [rising, full curve].
The same measure, in the same setting: in the case of `Cc1ccc(C)c(N2C(=O)N(Cc3cc(=O)n4ccccc4n3)c3ccccc3S2(=O)=O)c1` it was 20 µM [falling, partial curve, poor fit]; in that of `O=C(NCCCO)c1cc2c([nH]c3ccccc32)c(-c2ccc(F)cc2)n1`, 22.4 µM [falling, single point].
Same read-out and setting: in the case of `CCC1=NN(C(=O)Cc2ccc([N+](=O)[O-])cc2)C(O)(C(F)(F)F)C1` (stereo not drawn) it was 6.31 µM [falling, single point].
In the case of `CCOc1ccccc1Nc1cc2n(c(=O)n1)CCc1cc(OC)c(OC)cc1-2`, the AC50 under setting [2] is 0.631 µM [falling, partial curve, poor fit].
In the case of `CCC1CCCCN1CCCNC(=O)c1cc2c(Cl)nc3ccccc3c2s1` (stereo not drawn), the concentration at half-maximal activity (AC50) under setting [1] was 20 µM [falling, single point].
In the case of `Cc1nc2ccc(NC(=O)c3cccs3)cc2s1`, the AC50 under setting [1] was 7.94 µM [falling, partial curve, poor fit].
Regarding `COc1cc2c(O)c3c(c(-c4ccc5c(c4)OCO5)c2cc1OC)C(=O)OC3`, the AC50 under setting [1] was 6.31 µM [rising, partial curve].
